Tested on: tonic hind limb extensor convulsions
Assay: Maximal electroshock seizure threshold (MEST) test in the mouse
Conditions: 2.5 mg/kg i.p., 30 min pre-treatment, current giving tonic hind limb extension in 50% of animals
Description: The efficacy of 6-OH CBDV was tested in a mouse model of generalised seizure, the maximal electroshock seizure threshold (MEST) test.
The maximal electroshock seizure threshold (MEST) test is widely utilized preclinically to evaluate pro- or anti-convulsant properties of test compounds (Loscher et al., 1991).
In the MEST test the ability of a drug to alter the seizure threshold current required to induce hind limb tonic extensor convulsions is measured according to an “up and down” method of shock titration (Kimball et al., 1957). An increase in seizure threshold is indicative of anti-convulsant effect.
The ability of a test compound to alter the stimulus intensity, expressed as current (mA), required to induce the presence of tonic hind limb extensor convulsions, is assessed in the MEST.
Naïve mice were acclimatised to the procedure room in their home cages for up to 7 days, with food and water available ad libitum.
All animals were weighed at the beginning of the study and randomly assigned to treatment groups based on a mean distribution of body weight across groups. […]
6-OH CBDV effects were also calculated as percentage change in CC50 from the vehicle control group.
Significant difference between drug-treated animals and controls were assessed according to Litchfield and Wilcoxon (1949).

## CN1C(=O)CN=C(c2ccccc2)c2cc(Cl)ccc21 [Diazepam, diazepam, reference compound]
  CC50 ± SEM: 57.5 ± 0.3 mA
Listed as diazepam
  CC50 ± SEM: 57.5 mA

From patent US11590087B2, “Cannabidiol-type cannabinoid compound” (GW Research Limited, priority 2019, dated 2023)
